## Drug screen on melanoma cell lines: apoptosis marker

From a melanoma drug combination screen (doi:10.1371/journal.pone.0140310); values rounded.

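Human melanoma cell lines in 1,536-well plates were treated with a pair of drugs for 72 h, then fixed, stained and imaged. The read-out is the fraction of cleaved-PARP-positive nuclei, in % of that fraction in the DMSO control; 200 means twice the control level of this apoptosis marker. Concentrations were fixed for each drug; these are the higher of two levels. No replicate spread is given; individual values may be noisy. The marker varies much from line to line, for technical or biological reasons.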 This is part of the screen, not chosen by result. A dash means that no value is listed here.

Every entry is a combination with ZM336372 at 10 µM: Cc1ccc(NC(=O)c2cccc(N(C)C)c2)cc1NC(=O)c1ccc(O)cc1

Partner,WM1745,SK-MEL-2,WM115,IST-MEL1,RVH-421,SK-MEL-30,LB2518-MEL,A101D,COLO 792,UACC-62
O=C(CCCCCCC(=O)Nc1ccccc1)NO at 0.4 µM,116,136,210,142,56.0,134,-,124,87.3,134
NC1(c2ccc(-c3nc4ccn5c(=O)[nH]nc5c4cc3-c3ccccc3)cc2)CCC1 at 2 µM,82.8,49.4,53.2,260,70.4,78.1,61.1,57.7,106,119
COc1cc(Nc2ncc(F)c(Nc3ccc4c(n3)NC(=O)C(C)(C)O4)n2)cc(OC)c1OC at 2 µM,238,68.2,156,83.2,123,63.3,163,960,230,203
C[C@]1(O)C[C@@H](c2nc(-c3ccc4ccc(-c5ccccc5)nc4c3)c3c(N)nccn32)C1 at 2 µM,104,142,33.3,280,48.7,16.2,23.4,46.2,50.3,121
CC(=O)O[C@@]12CO[C@@H]1C[C@H](O)[C@@]1(C)C(=O)[C@H](O)C3=C(C)[C@@H](OC(=O)[C@H](O)[C@@H](NC(=O)OC(C)(C)C)c4ccccc4)C[C@@](O)([C@@H](OC(=O)c4ccccc4)[C@H]21)C3(C)C at 0.0005 µM,267,909,610,165,267,712,824,135,1820,261
CO[C@H]1C[C@@H]2CC[C@@H](C)[C@@](O)(O2)C(=O)C(=O)N2CCCC[C@H]2C(=O)O[C@H]([C@H](C)C[C@@H]2CC[C@@H](OCCO)[C@H](OC)C2)CC(=O)[C@H](C)/C=C(\C)[C@@H](O)[C@@H](OC)C(=O)[C@H](C)C[C@H](C)/C=C/C=C/C=C/1C at 0.1 µM,81.3,-,46.4,39.7,81.1,10.0,-,79.6,56.8,111
CC[C@]1(O)C[C@H]2CN(CCc3c([nH]c4ccccc34)[C@@](C(=O)OC)(c3cc4c(cc3OC)N(C=O)[C@H]3[C@@](O)(C(=O)OC)[C@H](OC(C)=O)[C@]5(CC)C=CCN6CC[C@]43[C@@H]65)C2)C1 at 0.0005 µM,106,127,812,945,207,250,388,330,146,113
Cn1cncc1[C@@](N)(c1ccc(Cl)cc1)c1ccc2c(c1)c(-c1cccc(Cl)c1)cc(=O)n2C at 0.05 µM,83.8,142,136,237,637,40.9,136,232,202,121
O=C(O)c1ccc2c(c1)nc(Nc1cccc(Cl)c1)c1ccncc12 at 2 µM,146,282,69.5,144,45.4,82.8,110,97.3,149,197
Cc1cc(Nc2cc(N3CCN(C)CC3)nc(/C=C/c3ccccc3)n2)n[nH]1 at 0.2 µM,101,321,457,92.2,57.8,29.6,157,360,161,129
OCc1c[nH]c2ccccc12 at 4 µM,95.9,152,185,200,203,45.3,176,113,80.3,81.9
Cn1cc(C2=C(c3cn(C4CCN(Cc5ccccn5)CC4)c4ccccc34)C(=O)NC2=O)c2ccccc21 at 4 µM,135,206,88.2,769,77.3,51.1,268,185,61.7,115
NCC(=O)Nc1ccc(-n2nc(C(F)(F)F)cc2-c2ccc3c(ccc4ccccc43)c2)cc1 at 5 µM,135,333,56.7,169,181,1140,325,112,289,219
Oc1nc(-c2ccc(C(F)(F)F)cc2)nc2c1CSCC2 at 10 µM,130,217,181,63.0,102,93.8,-,92.6,105,36.1
Nc1nc(F)nc2c1ncn2[C@@H]1O[C@H](CO)[C@@H](O)[C@@H]1O at 1 µM,103,1920,92.9,147,110,1720,87.7,66.1,262,135
CC(C)C[C@H](NC(=O)[C@H](Cc1ccccc1)NC(=O)c1cnccn1)B(O)O at 0.005 µM,468,252,1780,1750,705,593,6500,1900,274,152

Some entries from above, unchanged:

Partner	WM1745	SK-MEL-2	WM115	IST-MEL1	RVH-421	SK-MEL-30	LB2518-MEL	A101D	COLO 792	UACC-62
C[C@]1(O)C[C@@H](c2nc(-c3ccc4ccc(-c5ccccc5)nc4c3)c3c(N)nccn32)C1 at 2 µM	104	142	33.3	280	48.7	16.2	23.4	46.2	50.3	121
Nc1nc(F)nc2c1ncn2[C@@H]1O[C@H](CO)[C@@H](O)[C@@H]1O at 1 µM	103	1920	92.9	147	110	1720	87.7	66.1	262	135